# Measurements from PubChem BioAssay.
# The other results are listed elsewhere or left out. The main result of the screen is listed elsewhere. These columns were measured beside it and carry no call. Peptide text beside a SMILES is read from it.
# Assay: PubChem AID 1586
# Conditions: yeast two-hybrid polyglutamine protein interaction, reporter readout; measured here: averaged growth delta OD
row,Compound,signal change (36 h minus 0 h)
1,N.N.O=C(O)C1(C(=O)O)CCC1.[Pt],0.138
2,CO[C@@H]1[C@@H](O[C@@H]2O[C@H](C)[C@@H](O[C@H]3C[C@@](C)(O)[C@H](O)[C@H](C)O3)[C@H](N(C)C)[C@H]2O)[C@@H](CC=O)C[C@@H](C)[C@@H](O[C@H]2CC[C@H](N(C)C)[C@@H](C)O2)/C=C/C=C/C[C@H](C)OC(=O)C[C@H]1O,0.112
3,CN1C(CC(=O)c2ccccc2)CCCC1CC(O)c1ccccc1 (centres undefined),0.181
4,CC[N+](C)(C)c1cccc(O)c1,0.135
5,O=C(O)c1cc(=O)c2cccc(O)c2[nH]1,0.051
6,CC(COc1ccccc1)N(CCCl)Cc1ccccc1 (centres undefined),0.11
7,O=c1c(O)c(-c2ccc(O)cc2O)oc2cc(O)cc(O)c12,0.0481
8,CN(C)CCCN1c2ccccc2CCc2ccc(Cl)cc21,0.182
9,CN(Cc1cc(Br)cc(Br)c1N)C1CCCCC1,0.113
10,CC(=O)OCC(=O)[C@@]1(O)CCC2C3CCC4=CC(=O)C=CC4(C)C3[C@@H](O)C[C@@]21C (some centres undefined),0.0722
11,CC/C(=C(/CC)c1ccc(O)cc1)c1ccc(O)cc1,0.163
12,CC(=O)N=c1sc(S(N)(=O)=O)nn1C,0.0881
13,NC(=O)NO,0.0993
14,COc1ccc(NS(=O)(=O)c2ccc(N)cc2)nn1,0.0631
15,CC[C@H]1OC(=O)[C@H](C)[C@@H](O[C@H]2C[C@@](C)(OC)[C@@H](O)[C@H](C)O2)[C@H](C)[C@@H](O[C@@H]2O[C@H](C)C[C@H](N(C)C)[C@H]2O)[C@](C)(O)C[C@@H](C)/C(=N\OCOCCOC)[C@H](C)[C@@H](O)[C@]1(C)O,0.089
16,C[C@]12CCC(=O)C=C1CCC1C2[C@@H](O)C[C@@]2(C)C1CC[C@]2(O)C(=O)COC(=O)CCC(=O)O (some centres undefined),0.154
17,Cc1c(N)c(=O)n(-c2ccccc2)n1C,0.197
18,N[C@H](C(=O)O)[C@@H]1CC(Cl)=NO1,0.099
19,Nc1ccc(S(=O)(=O)Nc2ccccn2)cc1,0.198
20,Cc1c(C)c2c(c(C)c1O)CCC(C)(CCCC(C)CCCC(C)CCCC(C)C)O2 (centres undefined),0.0746

row,Compound,signal change (36 h minus 0 h)
1,CC(=O)N(O)CCCCCNC(=O)CCC(=O)N(O)CCCCCNC(=O)CCC(=O)N(O)CCCCCN,0.133
2,CC(=O)NS(=O)(=O)c1ccc(N)cc1,0.191
3,CO[C@@]1(NC(=O)CSCC#N)C(=O)N2C(C(=O)O)=C(CSc3nnnn3C)CSC21 (some centres undefined),0.171
4,COc1cc(Cc2cnc(N)nc2N)cc(OC)c1OC,0.17
5,N=C(N)N,0.161
6,C#CCN(C)Cc1ccccc1,0.18
7,CC1(C)S[C@@H]2[C@H](NC(=O)[C@H](NC(=O)N3CCNC3=O)c3ccccc3)C(=O)N2C1C(=O)O (some centres undefined),0.184
8,CC(=O)Oc1cccc(O)c1,0.251
9,COc1ccc(CCN2CCC(Nc3nc4ccccc4n3Cc3ccc(F)cc3)CC2)cc1,0.259
10,COC1=C2C[C@@H](C)C[C@H](OC)[C@H](O)[C@@H](C)/C=C(\C)[C@@H](OC(N)=O)[C@H](OC)/C=C\C=C(/C)C(=O)NC(=CC1=O)C2=O,0.182
11,CN(C)CCCN1c2ccccc2Sc2ccc(C(F)(F)F)cc21,0.285
12,CC1(C)C2CC[C@]3(C)C(C(=O)C=C4[C@@H]5C[C@@](C)(C(=O)O)CC[C@]5(C)CC[C@]43C)[C@@]2(C)CC[C@@H]1O (some centres undefined),0.183
13,CCn1cc(C(=O)O)c(=O)c2cnc(N3CCNCC3)nc21,0.0293
14,N=C(N)c1ccc(OCCCCCOc2ccc(C(=N)N)cc2)cc1,0.0448
15,CN1C(C(=O)Nc2ccccn2)=C(O)c2ccccc2S1(=O)=O,0.0803
16,O=C(O)CCCCCCCC(=O)O,0.203
17,NCCCCC(N)C(=O)NCC(=O)NC(Cc1cnc[nH]1)C(=O)NC(CCCCN)C(=O)O (centres undefined) (H-KGHK-OH; configuration not given here),0.39
18,S=c1nc[nH]c2nc[nH]c12,0.126
19,C[N+]12CCC(CC1)C(OC(=O)C(O)(c1ccccc1)c1ccccc1)C2 (centres undefined),0.109

# Already shown: nine of the compounds above.
row,Compound,signal change (36 h minus 0 h)
7,CC1(C)S[C@@H]2[C@H](NC(=O)[C@H](NC(=O)N3CCNC3=O)c3ccccc3)C(=O)N2C1C(=O)O (some centres undefined),0.184
8,CC(=O)Oc1cccc(O)c1,0.251
9,COc1ccc(CCN2CCC(Nc3nc4ccccc4n3Cc3ccc(F)cc3)CC2)cc1,0.259
10,COC1=C2C[C@@H](C)C[C@H](OC)[C@H](O)[C@@H](C)/C=C(\C)[C@@H](OC(N)=O)[C@H](OC)/C=C\C=C(/C)C(=O)NC(=CC1=O)C2=O,0.182
11,CN(C)CCCN1c2ccccc2Sc2ccc(C(F)(F)F)cc21,0.285
12,CC1(C)C2CC[C@]3(C)C(C(=O)C=C4[C@@H]5C[C@@](C)(C(=O)O)CC[C@]5(C)CC[C@]43C)[C@@]2(C)CC[C@@H]1O (some centres undefined),0.183
13,CCn1cc(C(=O)O)c(=O)c2cnc(N3CCNCC3)nc21,0.0293
14,N=C(N)c1ccc(OCCCCCOc2ccc(C(=N)N)cc2)cc1,0.0448
15,CN1C(C(=O)Nc2ccccn2)=C(O)c2ccccc2S1(=O)=O,0.0803
